The list does not hold the whole screen: its compounds were picked by chemical class. Not every dose and run of a compound is shown. T/C: endpoint of the treated group in % of that of the vehicle group. For survival time, the PubChem record calls one and a half times the control and up active, and a quarter to a half above the control has no call in these data; cut-offs in other NCI protocols can differ. Some T/C values are marked as having no survivor count here; that says nothing about deaths at the dose. Schedules are NCI's codes, taken here to give the interval after Q, in days (D) or hours (H), and the number of doses after X. Some entries hold several experiments; their values stand side by side, smallest first. Some schedule codes hold Z or #, which are not explained here. Brackets with × give the number of equal values in this list.
Test system: L1210 leukemia ip in BDF1 mice, survival T/C
Experiment: NCI In Vivo Anticancer Drug Screen. Data for tumor model L1210 Leukemia (intraperitoneal) in B6D2F1 (BDF1) mice
Settings: higher T/C = longer survival

CC(C(=O)O)N(CCCl)CCCl (stereo not given)
T/C (T/C endpoint: mean survival time, dose: 0.19 mg/kg/injection, schedule: Q01DX Z (ip), vehicle: saline): 93 % of control [survivor count not shown] | T/C (T/C endpoint: mean survival time, dose: 0.25 mg/kg/injection, schedule: Q01DX010 (ip), vehicle: saline): 125 % of control [survivor count not shown] | T/C (T/C endpoint: mean survival time, dose: 0.38 mg/kg/injection, schedule: Q01DX Z (ip), vehicle: saline): 89 % of control [survivor count not shown] | T/C (T/C endpoint: mean survival time, dose: 0.5 mg/kg/injection, schedule: Q01DX001 (ip), vehicle: saline): 112 % of control [survivor count not shown] | T/C (T/C endpoint: mean survival time, dose: 0.5 mg/kg/injection, schedule: Q01DX010 (ip), vehicle: saline): 127 % of control [survivor count not shown] | T/C (T/C endpoint: mean survival time, dose: 0.66 mg/kg/injection, schedule: Q01DX Z (ip), vehicle: carboxymethylcellulose (CMC)): 120 % of control [survivor count not shown] | T/C (T/C endpoint: mean survival time, dose: 0.75 mg/kg/injection, schedule: Q01DX Z (ip), vehicle: saline): 115 % of control [survivor count not shown] | T/C (T/C endpoint: mean survival time, dose: 0.82 mg/kg/injection, schedule: Q01DX Z (ip), vehicle: carboxymethylcellulose (CMC)): 113 % of control [survivor count not shown] | T/C (T/C endpoint: mean survival time, dose: 0.83 mg/kg/injection, schedule: Q01DX Z (ip), vehicle: carboxymethylcellulose (CMC)): 126 % of control [survivor count not shown] | T/C (T/C endpoint: mean survival time, dose: 1.0 mg/kg/injection, schedule: Q01DX001 (ip), vehicle: saline): 125 % of control [survivor count not shown] | T/C (T/C endpoint: mean survival time, dose: 1.0 mg/kg/injection, schedule: Q01DX009 (ip), vehicle: saline): 132 [survivor count not shown] and 135 % of control [survivor count not shown] | T/C (T/C endpoint: mean survival time, dose: 1.0 mg/kg/injection, schedule: Q01DX010 (ip), vehicle: saline): 122 [survivor count not shown] and 128 % of control [survivor count not shown] | T/C (T/C endpoint: mean survival time, dose: 1.5 mg/kg/injection, schedule: Q01DX Z (ip), vehicle: carboxymethylcellulose (CMC)): 114 % of control [survivor count not shown] | T/C (T/C endpoint: mean survival time, dose: 1.5 mg/kg/injection, schedule: Q01DX Z (ip), vehicle: saline): 126 % of control [survivor count not shown] (2×) | T/C (T/C endpoint: mean survival time, dose: 1.65 mg/kg/injection, schedule: Q01DX Z (ip), vehicle: carboxymethylcellulose (CMC)): 127 % of control [survivor count not shown] (2×) | T/C (T/C endpoint: mean survival time, dose: 2.0 mg/kg/injection, schedule: Q01DX001 (ip), vehicle: saline): 128 % of control [survivor count not shown] | T/C (T/C endpoint: mean survival time, dose: 2.0 mg/kg/injection, schedule: Q01DX009 (ip), vehicle: saline): 142 [survivor count not shown] and 176 % of control [survivor count not shown] | T/C (T/C endpoint: mean survival time, dose: 2.0 mg/kg/injection, schedule: Q01DX010 (ip), vehicle: saline): 141 [survivor count not shown] and 153 % of control [survivor count not shown] | T/C (T/C endpoint: mean survival time, dose: 2.2 mg/kg/injection, schedule: Q01DX Z (ip), vehicle: other): 130 [survivor count not shown] and 134 % of control [survivor count not shown] | T/C (T/C endpoint: mean survival time, dose: 3.0 mg/kg/injection, schedule: Q01DX Z (ip), vehicle: saline): 120 % of control [survivor count not shown] | T/C (T/C endpoint: mean survival time, dose: 3.3 mg/kg/injection, schedule: Q01DX Z (ip), vehicle: carboxymethylcellulose (CMC)): 150 % of control [survivor count not shown] | T/C (T/C endpoint: mean survival time, dose: 3.3 mg/kg/injection, schedule: Q01DX Z (ip), vehicle: other): 134 [survivor count not shown] and 142 % of control [survivor count not shown] | T/C (T/C endpoint: mean survival time, dose: 3.7 mg/kg/injection, schedule: Q01DX Z (ip), vehicle: carboxymethylcellulose (CMC)): 130 % of control [survivor count not shown] | T/C (T/C endpoint: mean survival time, dose: 4.0 mg/kg/injection, schedule: Q01DX001 (ip), vehicle: saline): 128 [survivor count not shown] and 143 % of control [survivor count not shown] | T/C (T/C endpoint: mean survival time, dose: 4.0 mg/kg/injection, schedule: Q01DX009 (ip), vehicle: saline): 134 [survivor count not shown] and 158 % of control [survivor count not shown] | T/C (T/C endpoint: mean survival time, dose: 4.0 mg/kg/injection, schedule: Q01DX010 (ip), vehicle: saline): 89 % of control [survivor count not shown] | T/C (T/C endpoint: mean survival time, dose: 5.0 mg/kg/injection, schedule: Q01DX Z (ip), vehicle: other): 139 [survivor count not shown] and 141 % of control [survivor count not shown] | T/C (T/C endpoint: mean survival time, dose: 6.0 mg/kg/injection, schedule: Q01DX Z (ip), vehicle: saline): 89 % of control [survivor count not shown] | T/C (T/C endpoint: mean survival time, dose: 7.4 mg/kg/injection, schedule: Q01DX Z (ip), vehicle: carboxymethylcellulose (CMC)): 116 % of control [survivor count not shown] | T/C (T/C endpoint: mean survival time, dose: 7.5 mg/kg/injection, schedule: Q01DX Z (ip), vehicle: other): 134 [survivor count not shown] and 136 % of control [survivor count not shown] | T/C (T/C endpoint: mean survival time, dose: 8.0 mg/kg/injection, schedule: Q01DX001 (ip), vehicle: saline): 125 % of control [survivor count not shown] | T/C (T/C endpoint: mean survival time, dose: 8.0 mg/kg/injection, schedule: Q01DX009 (ip), vehicle: saline): 88 % of control [survivor count not shown] | T/C (T/C endpoint: mean survival time, dose: 16.0 mg/kg/injection, schedule: Q01DX001 (ip), vehicle: saline): 162 % of control [survivor count not shown] | T/C (T/C endpoint: median survival time, dose: 1.0 mg/kg/injection, schedule: Q01DX009 (ip), vehicle: saline): 128 [survivor count not shown] and 133 % of control [survivor count not shown] | T/C (T/C endpoint: median survival time, dose: 2.0 mg/kg/injection, schedule: Q01DX009 (ip), vehicle: saline): 138 [survivor count not shown] and 150 % of control [survivor count not shown] | T/C (T/C endpoint: median survival time, dose: 4.0 mg/kg/injection, schedule: Q01DX009 (ip), vehicle: saline): 138 [survivor count not shown] and 185 % of control [survivor count not shown] | T/C (T/C endpoint: median survival time, dose: 8.0 mg/kg/injection, schedule: Q01DX009 (ip), vehicle: saline): 107 % of control [survivor count not shown]

Cc1[nH]c(=O)[nH]c(=O)c1CN(CCCl)CCCl
T/C (T/C endpoint: mean survival time, dose: 0.75 mg/kg/injection, schedule: Q04DX002 (ip), vehicle: Klucel (hydroxypropylcellulose) (HPC)): 134 % of control [survivor count not shown] | T/C (T/C endpoint: mean survival time, dose: 1.5 mg/kg/injection, schedule: Q04DX002 (ip), vehicle: Klucel (hydroxypropylcellulose) (HPC)): 138 % of control [survivor count not shown] | T/C (T/C endpoint: mean survival time, dose: 3.1 mg/kg/injection, schedule: Q04DX002 (ip), vehicle: Klucel (hydroxypropylcellulose) (HPC)): 115 % of control [survivor count not shown]

O=Nc1ccc(N(CCCl)CCCl)cc1
T/C (T/C endpoint: mean survival time, dose: 0.7 mg/kg/injection, schedule: Q01DX001 (ip), vehicle: other): 98 % of control [survivor count not shown] | T/C (T/C endpoint: mean survival time, dose: 1.0 mg/kg/injection, schedule: Q01DX001 (ip), vehicle: other): 106 % of control [survivor count not shown] | T/C (T/C endpoint: mean survival time, dose: 1.0 mg/kg/injection, schedule: Q01DX009 (ip), vehicle: other): 97 % of control [survivor count not shown] | T/C (T/C endpoint: mean survival time, dose: 1.5 mg/kg/injection, schedule: Q01DX001 (ip), vehicle: other): 98 % of control [survivor count not shown] | T/C (T/C endpoint: mean survival time, dose: 1.5 mg/kg/injection, schedule: Q01DX009 (ip), vehicle: other): 103 % of control [survivor count not shown] | T/C (T/C endpoint: mean survival time, dose: 2.2 mg/kg/injection, schedule: Q01DX001 (ip), vehicle: other): 108 % of control [survivor count not shown] | T/C (T/C endpoint: mean survival time, dose: 2.2 mg/kg/injection, schedule: Q01DX009 (ip), vehicle: other): 103 % of control [survivor count not shown] | T/C (T/C endpoint: mean survival time, dose: 2.5 mg/kg/injection, schedule: Q01DX001 (ip), vehicle: saline): 111 % of control [survivor count not shown] | T/C (T/C endpoint: mean survival time, dose: 3.3 mg/kg/injection, schedule: Q01DX009 (ip), vehicle: other): 116 [survivor count not shown] and 126 % of control [survivor count not shown] | T/C (T/C endpoint: mean survival time, dose: 5.0 mg/kg/injection, schedule: Q01DX001 (ip), vehicle: saline): 138 % of control [survivor count not shown] | T/C (T/C endpoint: mean survival time, dose: 5.0 mg/kg/injection, schedule: Q01DX009 (ip), vehicle: other): 135 % of control [survivor count not shown] | T/C (T/C endpoint: mean survival time, dose: 7.5 mg/kg/injection, schedule: Q01DX009 (ip), vehicle: other): 126 % of control [survivor count not shown] | T/C (T/C endpoint: mean survival time, dose: 10.0 mg/kg/injection, schedule: Q01DX001 (ip), vehicle: saline): 130 % of control [survivor count not shown] | T/C (T/C endpoint: mean survival time, dose: 11.25 mg/kg/injection, schedule: Q01DX009 (ip), vehicle: other): 134 % of control [survivor count not shown] | T/C (T/C endpoint: mean survival time, dose: 15.0 mg/kg/injection, schedule: Q01DX001 (ip), vehicle: saline): 113 % of control [survivor count not shown]

From PubChem BioAssay AID248 (DTP/NCI, 2004)
